According to the supplement of paper PMC4604168 (melanoma cell lines):
The other results are listed elsewhere or left out. Many values rest on one well or one pass, so single values are uncertain.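 Imaging used 1,536-well plates; nuclei positive for cleaved PARP by antibody were divided by total DNA-stained nuclei to yield the apoptosis fraction. Doses for screening kept most cells viable, and cell lines differ markedly in resting and induced cleaved-PARP levels.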

Each compound was assayed on CBRC014 (line from a melanoma biopsy) (assay: cleaved PARP positive nuclei fraction relative to DMSO control; melanoma cells; higher = more apoptosis). Settings: library dose: low library concentration; 72 h.

| SMILES | cleaved PARP positive nuclei fraction [%] |
| --- | --- |
| C[As](C)SC[C@H](NC(=O)CC[C@H](N)C(=O)O)C(=O)NCC(=O)O [Darinaparsin] + COc1cc2ncnc(Nc3ccc(Oc4ccccc4)cc3)c2cc1OC [SrcI1] (first compound 0.4 µM, partner dose 2 µM) | 95.2 |
| COc1ccc(-c2ccc3c(N4CCOCC4)nc(N4C[C@@H](C)O[C@@H](C)C4)nc3n2)cc1CO + Cc1cc(SCc2sc(-c3ccc(C(F)(F)F)c(F)c3)nc2C)ccc1OCC(=O)O [GW0742] (first compound 0.02 µM, partner dose 2 µM) | 120 |
| O=S(=O)(c1ccccc1)N(CC(F)(F)F)c1ccc(C(O)(C(F)(F)F)C(F)(F)F)cc1 + C/C(O)=C(\C#N)C(=O)Nc1cc(Br)ccc1Br [LFM-A13] (first compound 1.4 µM, partner dose 2 µM) | 100 |
| O=C(O)c1ccc(-c2c[nH]c3ncc(-c4ccccc4)cc23)cc1C1CCCC1 + O=C(Oc1ccc([N+](=O)[O-])cc1)N1CCC(C(O)(c2ccc3c(c2)OCO3)c2ccc3c(c2)OCO3)CC1 [JZL184] (first compound 0.16 µM, partner dose 1 µM) | 86.4 |
| Cn1nnc2c(C(N)=O)ncn2c1=O [temozolomide] + O=C(Oc1ccc([N+](=O)[O-])cc1)N1CCC(C(O)(c2ccc3c(c2)OCO3)c2ccc3c(c2)OCO3)CC1 [JZL184] (first compound 2 µM, partner dose 1 µM) | 107 |
| Cc1cc(SCc2sc(-c3ccc(C(F)(F)F)c(F)c3)nc2C)ccc1OCC(=O)O + COc1cc(N2CCC(N3CCN(C)CC3)CC2)ccc1Nc1ncc(Cl)c(Nc2ccccc2S(=O)(=O)C(C)C)n1 [NVP-TAE684] (first compound 2 µM, partner dose 0.08 µM) | 101 |
| CCN(CC)CCCCNc1ncc2cc(-c3cc(OC)cc(OC)c3)c(NC(=O)NC(C)(C)C)nc2n1 + C/C(O)=C(\C#N)C(=O)Nc1cc(Br)ccc1Br [LFM-A13] (first compound 0.1 µM, partner dose 2 µM) | 89.2 |
| CN(NC(=O)CC(=O)NN(C)C(=S)c1ccccc1)C(=S)c1ccccc1 + C/C(O)=C(\C#N)C(=O)Nc1cc(Br)ccc1Br [LFM-A13] (first compound 0.006 µM, partner dose 2 µM) | 383 |
| CCN(CC)CCCCNc1ncc2cc(-c3cc(OC)cc(OC)c3)c(NC(=O)NC(C)(C)C)nc2n1 + Cc1cc(SCc2sc(-c3ccc(C(F)(F)F)c(F)c3)nc2C)ccc1OCC(=O)O [GW0742] (first compound 0.1 µM, partner dose 2 µM) | 83.5 |
| Cc1cc(SCc2sc(-c3ccc(C(F)(F)F)c(F)c3)nc2C)ccc1OCC(=O)O + Cn1cc(/C=C2\C(=O)Nc3cccnc32)c2ccccc21 [GW441756] (first compound 2 µM, partner dose 0.4 µM) | 80.8 |
| CCN(CC)CCCCNc1ncc2cc(-c3cc(OC)cc(OC)c3)c(NC(=O)NC(C)(C)C)nc2n1 + O=C(Oc1ccc([N+](=O)[O-])cc1)N1CCC(C(O)(c2ccc3c(c2)OCO3)c2ccc3c(c2)OCO3)CC1 [JZL184] (first compound 0.1 µM, partner dose 1 µM) | 78.1 |
| O=C(Nc1ccccc1)c1cc([N+](=O)[O-])ccc1Cl + O=C(Oc1ccc([N+](=O)[O-])cc1)N1CCC(C(O)(c2ccc3c(c2)OCO3)c2ccc3c(c2)OCO3)CC1 [JZL184] (first compound 2 µM, partner dose 1 µM) | 87.4 |
| Oc1nc(-c2ccc(C(F)(F)F)cc2)nc2c1CSCC2 + O=C(Oc1ccc([N+](=O)[O-])cc1)N1CCC(C(O)(c2ccc3c(c2)OCO3)c2ccc3c(c2)OCO3)CC1 [JZL184] (first compound 2 µM, partner dose 1 µM) | 175 |
| C[As](C)SC[C@H](NC(=O)CC[C@H](N)C(=O)O)C(=O)NCC(=O)O [Darinaparsin] + O=c1cc(-c2cccc3c2Sc2ccccc2S3)oc(N2CCOCC2)c1 [KU55933] (first compound 0.4 µM, partner dose 1 µM) | 100 |
| C[As](C)SC[C@H](NC(=O)CC[C@H](N)C(=O)O)C(=O)NCC(=O)O [Darinaparsin] + O=C(O)C(=O)Nc1sc2c(c1C(=O)O)CCNC2 [TCS401] (first compound 0.4 µM, partner dose 1.66667 µM) | 98.2 |

Look-ups from the list:
cleaved PARP positive nuclei fraction [%], O=S(=O)(c1ccccc1)N(CC(F)(F)F)c1ccc(C(O)(C(F)(F)F)C(F)(F)F)cc1 + C/C(O)=C(\C#N)C(=O)Nc1cc(Br)ccc1Br [LFM-A13] (first compound 1.4 µM, partner dose 2 µM) is entered as 100
cleaved PARP positive nuclei fraction [%], COc1ccc(-c2ccc3c(N4CCOCC4)nc(N4C[C@@H](C)O[C@@H](C)C4)nc3n2)cc1CO + Cc1cc(SCc2sc(-c3ccc(C(F)(F)F)c(F)c3)nc2C)ccc1OCC(=O)O [GW0742] (first compound 0.02 µM, partner dose 2 µM) is entered as 120

What follows are compounds tested on CBRC016 (line from a melanoma biopsy) in the same assay as above. Settings: library dose: low library concentration; 72 h.

| SMILES | cleaved PARP positive nuclei fraction [%] |
| --- | --- |
| Cn1c(Nc2ccc(C(F)(F)F)cc2)nc2cc(Oc3ccnc(-c4ncc(C(F)(F)F)[nH]4)c3)ccc21 + O=C(Oc1ccc([N+](=O)[O-])cc1)N1CCC(C(O)(c2ccc3c(c2)OCO3)c2ccc3c(c2)OCO3)CC1 [JZL184] (first compound 0.08 µM, partner dose 1 µM) | 109 |
| C/C(O)=C(\C#N)C(=O)Nc1cc(Br)ccc1Br + COc1cc(N2CCC(N3CCN(C)CC3)CC2)ccc1Nc1ncc(Cl)c(Nc2ccccc2S(=O)(=O)C(C)C)n1 [NVP-TAE684] (first compound 2 µM, partner dose 0.08 µM) | 47.2 |
| Cc1cc(SCc2sc(-c3ccc(C(F)(F)F)c(F)c3)nc2C)ccc1OCC(=O)O + Cc1cc([N+](=O)[O-])ccc1NS(=O)(=O)c1cc(Cl)ccc1Cl [FH535] (first compound 2 µM, partner dose 1 µM) | 1330 |
| C[As](C)SC[C@H](NC(=O)CC[C@H](N)C(=O)O)C(=O)NCC(=O)O [Darinaparsin] + O=S(=O)(c1ccccc1)N(CC(F)(F)F)c1ccc(C(O)(C(F)(F)F)C(F)(F)F)cc1 [T0901317] (first compound 0.4 µM, partner dose 1.4 µM) | 61.7 |
| Cc1cc(SCc2sc(-c3ccc(C(F)(F)F)c(F)c3)nc2C)ccc1OCC(=O)O + Oc1nc(-c2ccc(C(F)(F)F)cc2)nc2c1CSCC2 [XAV939] (first compound 2 µM, partner dose 2 µM) | 64.1 |
| CCc1ccc(CCOc2ccc(CC3SC(=O)NC3=O)cc2)nc1 (configuration not stated) [pioglitazone] + Cc1cc(SCc2sc(-c3ccc(C(F)(F)F)c(F)c3)nc2C)ccc1OCC(=O)O [GW0742] (first compound 2 µM, partner dose 2 µM) | 68 |
| Cc1cc(N2CCOCC2)cc2[nH]c(-c3c(NC[C@@H](O)c4cccc(Cl)c4)cc[nH]c3=O)nc12 + O=C(Oc1ccc([N+](=O)[O-])cc1)N1CCC(C(O)(c2ccc3c(c2)OCO3)c2ccc3c(c2)OCO3)CC1 [JZL184] (first compound 0.2 µM, partner dose 1 µM) | 9430 |
| C[As](C)SC[C@H](NC(=O)CC[C@H](N)C(=O)O)C(=O)NCC(=O)O [Darinaparsin] + O=C(Oc1ccc([N+](=O)[O-])cc1)N1CCC(C(O)(c2ccc3c(c2)OCO3)c2ccc3c(c2)OCO3)CC1 [JZL184] (first compound 0.4 µM, partner dose 1 µM) | 27.3 |
| Cc1cc(SCc2sc(-c3ccc(C(F)(F)F)c(F)c3)nc2C)ccc1OCC(=O)O + c1cc(-c2cnn3cc(-c4ccc(OCCN5CCCCC5)cc4)cnc23)ccn1 [Dorsomorphin] (first compound 2 µM, partner dose 0.4 µM) | 109 |
| C#Cc1cccc(Nc2ncnc3cc(OCCOC)c(OCCOC)cc23)c1 [erlotinib] + C/C(O)=C(\C#N)C(=O)Nc1cc(Br)ccc1Br [LFM-A13] (first compound 0.8 µM, partner dose 2 µM) | 65.6 |
| C/C(O)=C(\C#N)C(=O)Nc1cc(Br)ccc1Br + O=c1cc(-c2cccc3c2Sc2ccccc2S3)oc(N2CCOCC2)c1 [KU55933] (first compound 2 µM, partner dose 1 µM) | 23.4 |
| Cc1cc(SCc2sc(-c3ccc(C(F)(F)F)c(F)c3)nc2C)ccc1OCC(=O)O + Oc1cc(-c2nc(-c3ccccc3)[nH]c2-c2ccncc2)ccc1Cl [L779450] (first compound 2 µM, partner dose 0.2 µM) | 125 |
| O=C(Nc1cccc(Cl)c1)Nc1ncc(CCNc2ncnc3ccsc23)s1 + O=C(Oc1ccc([N+](=O)[O-])cc1)N1CCC(C(O)(c2ccc3c(c2)OCO3)c2ccc3c(c2)OCO3)CC1 [JZL184] (first compound 0.0008 µM, partner dose 1 µM) | 40.2 |
| COc1ccc(-c2ccc3c(N4CCOCC4)nc(N4C[C@@H](C)O[C@@H](C)C4)nc3n2)cc1CO + O=C(Oc1ccc([N+](=O)[O-])cc1)N1CCC(C(O)(c2ccc3c(c2)OCO3)c2ccc3c(c2)OCO3)CC1 [JZL184] (first compound 0.02 µM, partner dose 1 µM) | 143 |
| Cc1nc(Nc2ncc(C(=O)Nc3c(C)cccc3Cl)s2)cc(N2CCN(CCO)CC2)n1 [dasatanib] + C/C(O)=C(\C#N)C(=O)Nc1cc(Br)ccc1Br [LFM-A13] (first compound 0.004 µM, partner dose 2 µM) | 59.5 |
| COCC[n+]1c2c(n(Cc3cnccn3)c1C)C(=O)c1ccccc1C2=O + Cc1cc(SCc2sc(-c3ccc(C(F)(F)F)c(F)c3)nc2C)ccc1OCC(=O)O [GW0742] (first compound 0.0004 µM, partner dose 2 µM) | 129 |
| COc1cc(N2CCC(N3CCN(C)CC3)CC2)ccc1Nc1ncc(Cl)c(Nc2ccccc2S(=O)(=O)C(C)C)n1 + O=C(Oc1ccc([N+](=O)[O-])cc1)N1CCC(C(O)(c2ccc3c(c2)OCO3)c2ccc3c(c2)OCO3)CC1 [JZL184] (first compound 0.08 µM, partner dose 1 µM) | 48.3 |
